Source: the supplement of paper PMC6411743
± gives the standard deviation of the averaged measurements. The entries are a selection whose mix differs from that of the whole data set. Most values lie at the level of the controls, where differences are scatter.

Protein sequences, listed by entry. Tags and fused reporters are not part of them. Lines headed by an entry give the natural chain unless they say otherwise; changes in a name come on top.
UniProt Q6ZN55: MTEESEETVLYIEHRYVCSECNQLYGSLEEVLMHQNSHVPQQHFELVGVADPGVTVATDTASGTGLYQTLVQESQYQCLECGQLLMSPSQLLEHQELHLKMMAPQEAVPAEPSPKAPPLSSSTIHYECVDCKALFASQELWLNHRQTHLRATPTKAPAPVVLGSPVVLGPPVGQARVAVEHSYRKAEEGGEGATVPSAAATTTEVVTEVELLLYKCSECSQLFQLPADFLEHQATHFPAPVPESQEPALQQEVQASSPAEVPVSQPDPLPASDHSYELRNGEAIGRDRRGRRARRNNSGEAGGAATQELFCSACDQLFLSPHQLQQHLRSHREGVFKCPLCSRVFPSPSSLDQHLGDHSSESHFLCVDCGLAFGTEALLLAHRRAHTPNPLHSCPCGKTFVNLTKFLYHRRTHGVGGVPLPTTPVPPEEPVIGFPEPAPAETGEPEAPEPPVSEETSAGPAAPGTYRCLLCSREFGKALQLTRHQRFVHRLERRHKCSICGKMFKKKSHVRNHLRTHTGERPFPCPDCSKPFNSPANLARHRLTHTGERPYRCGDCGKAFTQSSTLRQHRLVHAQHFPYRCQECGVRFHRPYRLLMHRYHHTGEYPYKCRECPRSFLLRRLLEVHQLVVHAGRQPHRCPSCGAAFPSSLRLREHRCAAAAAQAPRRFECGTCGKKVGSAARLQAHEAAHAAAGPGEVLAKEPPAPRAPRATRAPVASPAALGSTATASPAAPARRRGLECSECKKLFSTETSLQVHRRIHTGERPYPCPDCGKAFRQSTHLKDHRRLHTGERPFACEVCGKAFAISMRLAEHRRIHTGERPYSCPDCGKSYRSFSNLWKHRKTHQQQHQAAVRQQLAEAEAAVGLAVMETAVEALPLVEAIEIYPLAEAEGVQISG
UniProt Q86YR5: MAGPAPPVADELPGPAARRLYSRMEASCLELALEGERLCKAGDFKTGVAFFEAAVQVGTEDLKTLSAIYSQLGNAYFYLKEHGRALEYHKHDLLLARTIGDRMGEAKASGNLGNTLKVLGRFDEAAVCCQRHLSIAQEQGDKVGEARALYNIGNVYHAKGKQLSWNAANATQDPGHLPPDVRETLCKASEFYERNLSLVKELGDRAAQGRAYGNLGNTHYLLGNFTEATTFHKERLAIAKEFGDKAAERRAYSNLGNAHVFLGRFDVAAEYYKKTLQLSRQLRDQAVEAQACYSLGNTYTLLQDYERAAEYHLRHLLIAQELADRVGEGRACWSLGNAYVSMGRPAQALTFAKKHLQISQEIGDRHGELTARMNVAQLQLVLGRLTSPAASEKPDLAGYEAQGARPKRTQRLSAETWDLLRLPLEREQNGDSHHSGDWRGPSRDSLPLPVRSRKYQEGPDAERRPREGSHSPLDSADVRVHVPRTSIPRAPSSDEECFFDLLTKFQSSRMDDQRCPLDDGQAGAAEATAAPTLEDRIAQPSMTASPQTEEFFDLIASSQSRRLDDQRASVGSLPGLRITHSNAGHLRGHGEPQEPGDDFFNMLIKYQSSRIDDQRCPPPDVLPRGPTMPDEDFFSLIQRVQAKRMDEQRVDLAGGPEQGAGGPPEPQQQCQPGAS
UniProt Q14527: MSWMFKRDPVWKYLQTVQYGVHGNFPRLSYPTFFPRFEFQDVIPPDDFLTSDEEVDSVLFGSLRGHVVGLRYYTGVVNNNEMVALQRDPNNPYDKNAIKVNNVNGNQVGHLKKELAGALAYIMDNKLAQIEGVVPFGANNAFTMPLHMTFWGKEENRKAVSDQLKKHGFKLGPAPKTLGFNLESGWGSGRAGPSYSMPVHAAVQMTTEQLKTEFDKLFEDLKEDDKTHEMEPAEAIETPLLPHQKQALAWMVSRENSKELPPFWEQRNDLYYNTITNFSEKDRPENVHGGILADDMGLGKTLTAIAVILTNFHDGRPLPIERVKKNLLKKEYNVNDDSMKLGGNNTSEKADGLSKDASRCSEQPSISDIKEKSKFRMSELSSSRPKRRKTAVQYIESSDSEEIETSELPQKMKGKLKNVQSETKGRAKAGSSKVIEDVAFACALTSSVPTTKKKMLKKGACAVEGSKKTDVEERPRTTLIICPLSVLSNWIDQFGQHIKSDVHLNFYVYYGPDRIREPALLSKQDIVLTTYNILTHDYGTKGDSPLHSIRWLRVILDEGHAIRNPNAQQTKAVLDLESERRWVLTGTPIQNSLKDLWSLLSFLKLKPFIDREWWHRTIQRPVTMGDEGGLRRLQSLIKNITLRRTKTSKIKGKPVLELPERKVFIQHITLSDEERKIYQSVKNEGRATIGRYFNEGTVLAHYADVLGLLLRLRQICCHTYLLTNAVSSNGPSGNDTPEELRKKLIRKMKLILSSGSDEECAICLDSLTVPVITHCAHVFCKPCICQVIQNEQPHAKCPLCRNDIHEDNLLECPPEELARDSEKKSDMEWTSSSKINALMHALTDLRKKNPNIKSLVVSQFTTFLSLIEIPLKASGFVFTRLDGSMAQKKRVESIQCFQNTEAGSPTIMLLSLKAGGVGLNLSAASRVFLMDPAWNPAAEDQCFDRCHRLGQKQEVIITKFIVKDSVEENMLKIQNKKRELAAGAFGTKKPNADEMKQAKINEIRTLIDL
UniProt Q5JUR7: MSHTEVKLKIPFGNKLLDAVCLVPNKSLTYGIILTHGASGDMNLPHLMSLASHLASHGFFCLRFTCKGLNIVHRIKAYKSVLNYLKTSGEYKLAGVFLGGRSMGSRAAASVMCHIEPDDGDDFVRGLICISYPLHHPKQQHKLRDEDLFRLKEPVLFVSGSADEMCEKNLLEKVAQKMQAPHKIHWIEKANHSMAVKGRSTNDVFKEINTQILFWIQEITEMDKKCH
UniProt O43464: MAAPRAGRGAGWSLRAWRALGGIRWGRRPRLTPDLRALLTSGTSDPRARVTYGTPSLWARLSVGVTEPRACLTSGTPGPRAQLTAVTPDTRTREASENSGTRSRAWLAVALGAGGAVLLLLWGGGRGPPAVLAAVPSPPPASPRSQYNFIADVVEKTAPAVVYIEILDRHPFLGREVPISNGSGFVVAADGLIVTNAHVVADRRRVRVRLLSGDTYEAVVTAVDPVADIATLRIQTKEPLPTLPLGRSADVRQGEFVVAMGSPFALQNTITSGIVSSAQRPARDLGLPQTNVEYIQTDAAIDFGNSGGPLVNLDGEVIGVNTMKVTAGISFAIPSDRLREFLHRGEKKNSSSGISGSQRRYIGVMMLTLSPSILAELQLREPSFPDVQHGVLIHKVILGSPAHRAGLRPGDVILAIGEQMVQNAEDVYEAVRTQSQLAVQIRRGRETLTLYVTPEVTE
UniProt O75027: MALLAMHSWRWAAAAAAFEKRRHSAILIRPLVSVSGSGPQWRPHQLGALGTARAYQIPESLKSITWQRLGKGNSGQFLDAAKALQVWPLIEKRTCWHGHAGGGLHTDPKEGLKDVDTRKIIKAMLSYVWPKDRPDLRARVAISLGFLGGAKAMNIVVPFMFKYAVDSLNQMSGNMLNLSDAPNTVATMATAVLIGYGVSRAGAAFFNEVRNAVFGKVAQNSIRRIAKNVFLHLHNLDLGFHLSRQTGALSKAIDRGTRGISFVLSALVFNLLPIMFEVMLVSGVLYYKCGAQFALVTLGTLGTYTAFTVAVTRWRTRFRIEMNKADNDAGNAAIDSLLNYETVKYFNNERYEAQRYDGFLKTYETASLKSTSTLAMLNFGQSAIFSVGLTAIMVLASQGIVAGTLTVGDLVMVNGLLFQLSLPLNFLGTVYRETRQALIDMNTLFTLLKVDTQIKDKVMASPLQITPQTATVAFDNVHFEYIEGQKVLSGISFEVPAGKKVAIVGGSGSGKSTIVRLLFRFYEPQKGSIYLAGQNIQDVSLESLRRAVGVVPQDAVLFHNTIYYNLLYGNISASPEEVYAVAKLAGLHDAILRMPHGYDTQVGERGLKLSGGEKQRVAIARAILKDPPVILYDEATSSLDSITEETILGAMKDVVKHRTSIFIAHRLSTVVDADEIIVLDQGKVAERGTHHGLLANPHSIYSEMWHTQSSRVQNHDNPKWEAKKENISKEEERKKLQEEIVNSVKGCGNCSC
UniProt Q04206, whole entry: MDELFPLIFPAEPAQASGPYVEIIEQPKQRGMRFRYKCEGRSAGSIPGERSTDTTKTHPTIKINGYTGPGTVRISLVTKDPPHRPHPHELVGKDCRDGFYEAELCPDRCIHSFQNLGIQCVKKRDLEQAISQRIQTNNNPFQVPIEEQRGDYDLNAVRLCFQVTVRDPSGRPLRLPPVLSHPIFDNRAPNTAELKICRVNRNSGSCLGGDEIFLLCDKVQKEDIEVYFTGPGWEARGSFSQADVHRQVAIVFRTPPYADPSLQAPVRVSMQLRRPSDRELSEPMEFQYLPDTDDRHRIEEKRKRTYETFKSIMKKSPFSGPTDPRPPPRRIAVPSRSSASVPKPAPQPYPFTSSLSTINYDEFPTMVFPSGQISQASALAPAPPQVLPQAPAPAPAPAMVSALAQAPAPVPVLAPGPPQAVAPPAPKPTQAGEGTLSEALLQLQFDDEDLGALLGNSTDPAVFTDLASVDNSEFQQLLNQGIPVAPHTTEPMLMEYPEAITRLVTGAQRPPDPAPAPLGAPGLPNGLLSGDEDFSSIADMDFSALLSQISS
UniProt Q9UBF8: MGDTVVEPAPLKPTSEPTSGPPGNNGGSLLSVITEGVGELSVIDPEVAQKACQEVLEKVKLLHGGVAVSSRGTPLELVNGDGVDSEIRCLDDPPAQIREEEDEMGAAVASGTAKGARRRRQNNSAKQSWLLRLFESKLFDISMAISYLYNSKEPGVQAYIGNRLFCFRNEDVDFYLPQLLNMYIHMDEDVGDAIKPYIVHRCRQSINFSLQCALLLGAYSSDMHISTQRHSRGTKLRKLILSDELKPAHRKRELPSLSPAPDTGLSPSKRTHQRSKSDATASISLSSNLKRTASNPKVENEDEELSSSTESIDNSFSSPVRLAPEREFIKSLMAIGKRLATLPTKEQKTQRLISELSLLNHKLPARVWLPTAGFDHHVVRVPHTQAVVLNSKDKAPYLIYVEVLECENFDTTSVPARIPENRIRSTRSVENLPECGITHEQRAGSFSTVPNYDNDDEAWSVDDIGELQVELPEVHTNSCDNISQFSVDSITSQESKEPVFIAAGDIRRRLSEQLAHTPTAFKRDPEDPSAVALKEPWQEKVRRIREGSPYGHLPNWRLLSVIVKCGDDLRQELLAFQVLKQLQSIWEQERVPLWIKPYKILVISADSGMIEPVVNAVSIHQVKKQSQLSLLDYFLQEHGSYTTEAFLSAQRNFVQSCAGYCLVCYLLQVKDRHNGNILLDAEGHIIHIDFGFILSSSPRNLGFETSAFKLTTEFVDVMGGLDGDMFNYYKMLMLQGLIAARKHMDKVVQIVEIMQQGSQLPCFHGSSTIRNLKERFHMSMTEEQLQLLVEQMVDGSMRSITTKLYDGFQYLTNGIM
UniProt Q2M2I8: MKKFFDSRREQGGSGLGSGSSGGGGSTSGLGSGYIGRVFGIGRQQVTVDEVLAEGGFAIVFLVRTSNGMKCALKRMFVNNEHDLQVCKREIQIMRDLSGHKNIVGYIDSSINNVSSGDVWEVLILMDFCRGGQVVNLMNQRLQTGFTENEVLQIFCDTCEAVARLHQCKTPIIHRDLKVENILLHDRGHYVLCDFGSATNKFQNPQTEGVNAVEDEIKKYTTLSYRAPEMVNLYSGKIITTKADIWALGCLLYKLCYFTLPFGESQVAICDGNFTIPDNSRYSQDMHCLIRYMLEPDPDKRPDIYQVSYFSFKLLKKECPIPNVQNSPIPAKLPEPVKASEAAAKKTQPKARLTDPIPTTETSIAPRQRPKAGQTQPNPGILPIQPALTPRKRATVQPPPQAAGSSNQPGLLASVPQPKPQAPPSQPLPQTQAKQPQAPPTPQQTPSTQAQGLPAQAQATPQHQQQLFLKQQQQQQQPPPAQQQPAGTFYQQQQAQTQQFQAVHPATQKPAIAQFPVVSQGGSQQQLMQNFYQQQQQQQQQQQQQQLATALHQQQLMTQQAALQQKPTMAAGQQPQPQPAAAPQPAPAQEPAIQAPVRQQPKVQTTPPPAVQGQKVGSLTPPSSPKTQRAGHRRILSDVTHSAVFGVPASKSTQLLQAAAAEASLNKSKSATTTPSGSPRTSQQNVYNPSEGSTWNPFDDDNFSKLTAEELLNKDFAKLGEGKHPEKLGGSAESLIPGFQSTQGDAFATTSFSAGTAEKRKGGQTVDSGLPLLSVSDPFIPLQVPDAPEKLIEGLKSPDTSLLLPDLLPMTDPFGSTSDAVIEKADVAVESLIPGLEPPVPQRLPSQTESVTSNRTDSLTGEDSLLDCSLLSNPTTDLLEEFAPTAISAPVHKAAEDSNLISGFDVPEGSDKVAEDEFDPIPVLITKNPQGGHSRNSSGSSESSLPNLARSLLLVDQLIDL

Compound: Nc1ncnc2c1ncn2[C@@H]1O[C@H](COP(=O)(O)OP(=O)(O)NP(=O)(O)O)[C@@H](O)[C@H]1O [adenylyl imidodiphosphate]
Assay: NP40-soluble protein abundance relative to vehicle (solubility fold change) (ratio); higher = more soluble protein in presence of AMP-PNP
Procedure, shortened: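 Jurkat crude lysate prepared with a Dounce homogeniser was treated at eight concentrations spanning 0.1 to 10 mM, 10 min at room temperature then 3 min at 37 °C. Solubilisation with 0.8% NP40 and benzonase and ultracentrifugation preceded TMT labelling of the supernatant for LC-MS/MS. Fold change against the detergent-processed vehicle was determined per replicate from vsn-normalised intensities, across three independent experiments.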

Target	NP40-soluble protein abundance (concentration: 0.1mM)	NP40-soluble protein abundance (concentration: 0.5mM)
A0A0C4DFM2|Q6ZN55 and related entries (UniProt Q6ZN55)	1.03 ± 0.035	0.999 ± 0.015
A0A087WWH3|Q9NZM4 and related entries (UniProt Q9NZM4)	1.033 ± 0.0084	1.02 ± 0.027
A0A0A0MSS3|Q5T6P1 and related entries (UniProt Q8ND83)	1 ± 0.011	0.997 ± 0.029
A0A0A0MS70|A0A0A0MST0|H0Y4G9 and related entries (UniProt Q99836)	1.04 ± 0.024	0.968 ± 0.018
A0A0A0MRR3|Q7Z7C8 and related entries (UniProt Q7Z7C8)	0.9982 ± 0.0089	0.999 ± 0.036
A0A0G2JNU3|A6H8Y1 and related entries (UniProt A6H8Y1)	1.04 ± 0.11	1.066 ± 0.0061
A0A0A0MSK4 (UniProt Q86YR5)	1.02 ± 0.018	1.02 ± 0.021
A0A0A0MTB0|A0A0J9YYI4|D6RHG7 and related entries (UniProt Q86VE9)	1.02 ± 0.043	0.978 ± 0.047
A0A0C4DGA6|Q14527 (UniProt Q14527)	1.003 ± 0.005	0.994 ± 0.045
A0A0G2JNT7|A0A0G2JQF4|Q7Z3B3 and related entries (UniProt Q7Z3B3)	0.963 ± 0.035	0.981 ± 0.05
A0A087WWK8|A0A0C4DGT3|Q6DN90 (UniProt Q6DN90)	1.03 ± 0.029	0.995 ± 0.045
A0A087X0S7|A0A0B4J2G4|Q15345 and related entries (UniProt Q15345)	0.999 ± 0.017	1 ± 0.029
A0A0A6YYI3|A0A0B4J1V8|Q9NQ55 and related entries (UniProt Q9NQ55)	1.022 ± 0.0067	0.9849 ± 0.0075
A0A0C4DFW4|Q5JUR7 (UniProt Q5JUR7)	1 ± 0.026	1.01 ± 0.033
A0A0C4DG44|O43464 and related entries (UniProt O43464)	0.975 ± 0.026	0.9839 ± 0.0063
SH3PXD2B (UniProt A1X283)	1.01 ± 0.018	0.972 ± 0.038
A0A087WW65|O75027 and related entries (UniProt O75027)	1.02 ± 0.023	0.995 ± 0.066
A0A087X0W8|Q04206 and related entries (UniProt Q04206)	0.993 ± 0.024	0.99 ± 0.038
A0A0B4J1S8|Q9UBF8 and related entries (UniProt Q9UBF8)	1.02 ± 0.016	0.9603 ± 0.0078
A0A0A0MSG2|J3KNW4 and related entries (UniProt Q14192)	0.995 ± 0.014	0.984 ± 0.013
A0A096LP25|Q2M2I8 and related entries (UniProt Q2M2I8)	1.05 ± 0.048	1.04 ± 0.046

Rewritten as comma-separated lines: entries from further up
Target,NP40-soluble protein abundance (concentration: 0.1mM),NP40-soluble protein abundance (concentration: 0.5mM)
A0A087WW65|O75027 and related entries (UniProt O75027),1.02 ± 0.023,0.995 ± 0.066
A0A087X0W8|Q04206 and related entries (UniProt Q04206),0.993 ± 0.024,0.99 ± 0.038
A0A0B4J1S8|Q9UBF8 and related entries (UniProt Q9UBF8),1.02 ± 0.016,0.9603 ± 0.0078
A0A0A0MSG2|J3KNW4 and related entries (UniProt Q14192),0.995 ± 0.014,0.984 ± 0.013
A0A096LP25|Q2M2I8 and related entries (UniProt Q2M2I8),1.05 ± 0.048,1.04 ± 0.046
